Reference: PubChem BioAssay AID330 (DTP/NCI, 2004)
The list shows only some results of the screen, not a fair sample: it is rich in T/C values a quarter to a half above the control, in often repeated tests (any T/C) and in doses without a T/C. Further doses and runs are listed elsewhere. T/C gives the treated animals as a percentage of the vehicle group. Some doses have a count of surviving animals in place of a T/C: the source files T/C as zero there, which appears to mark a toxic dose or a test without result, not a measured value. Some doses without a T/C left all or most animals alive at the check, yet need not have been tolerated: survival well below the control is almost never listed, so the zero probably covers shortened survival too. Counts of survivors are from the toxicity check (mostly the fifth day) where no day follows; animals may have died later. Schedules are NCI's codes, taken here to give the interval after Q, in days (D) or hours (H), and the number of doses after X. Some entries hold several experiments; the values are given in rising order. Some molecules as drawn cover several salts, stereoisomers or complexes of the source; a dose is that of the sample tested. Counts like (3×) give the number of equal values in this list. Where survival is the endpoint, the PubChem record calls one and a half times the control and up active, and a quarter to a half above the control has no call in these data; cut-offs in other NCI protocols can differ. Some T/C values are followed by the survivors on the day toxicity was checked, most often the fifth; without a count, all were alive then.

System: P388 leukemia ip, CD2F1 mice, survival T/C
Assay: NCI In Vivo Anticancer Drug Screen. Data for tumor model P388 Leukemia (intraperitoneal) in CD2F1 (CDF1) mice
Conditions: T/C endpoint: median survival time, higher T/C = longer survival
[1] = dose: 200.0 mg/kg/injection, schedule: Q01DX005 (ip), vehicle: saline with Tween-80
[2] = dose: 100.0 mg/kg/injection, schedule: Q01DX005 (ip), vehicle: saline
[3] = dose: 200.0 mg/kg/injection, schedule: Q01DX005 (ip), vehicle: saline
[4] = dose: 50.0 mg/kg/injection, schedule: Q01DX005 (ip), vehicle: saline with Tween-80
[5] = dose: 100.0 mg/kg/injection, schedule: Q01DX005 (ip), vehicle: saline with Tween-80
[6] = dose: 400.0 mg/kg/injection, schedule: Q04DX003 (ip), vehicle: saline with Tween-80

In the case of `CC1CN1C1=C(F)C(=O)C(N2CC2C)=C(F)C1=O` (stereo unspecified), the survivor count (dose: 6.25 mg/kg/injection, schedule: Q01DX009 (ip), vehicle: Klucel (hydroxypropylcellulose) (HPC)) is reported as 3 of 6, the survivor count (dose: 12.5 mg/kg/injection, schedule: Q01DX009 (ip), vehicle: Klucel (hydroxypropylcellulose) (HPC)) is reported as 0 of 6 and the survivor count (dose: 25.0 mg/kg/injection, schedule: Q01DX009 (ip), vehicle: Klucel (hydroxypropylcellulose) (HPC)) is reported as 0 of 6.

For `OCc1ccc2ccc3ccc(CO)nc3c2n1`, the survivor count [1] was 2 of 6.

For `Cc1cc2c(c3oc(C4(C)OC4C4OC4C)cc(=O)c13)C(=O)c1c(O)c(C3CC(C)(N(C)C)C(O)C(C)O3)cc(C3CC(N(C)C)C(O)C(C)O3)c1C2=O` (stereo unspecified), the T/C (dose: 0.01 mg/kg/injection, schedule: Q01DX005 (ip), vehicle: saline) was 140 % of control, the T/C (dose: 0.01 mg/kg/injection, schedule: Q01DX009 (ip), vehicle: saline) was 142 % of control and the T/C (dose: 0.02 mg/kg/injection, schedule: Q01DX001 (ip), vehicle: saline) was 130 % of control. For the same molecule, the T/C (dose: 0.02 mg/kg/injection, schedule: Q01DX009 (ip), vehicle: saline) was 133 % of control, the T/C (dose: 0.02 mg/kg/injection, schedule: Q03HX024 (ip), vehicle: saline) was 133 % of control and the T/C (dose: 0.02 mg/kg/injection, schedule: Q04DX003 (ip), vehicle: saline) was 140 % of control. The T/C (dose: 0.02 mg/kg/injection, schedule: Q08DX002 (ip), vehicle: saline) was 140 % of control, the T/C (dose: 0.03 mg/kg/injection, schedule: Q01DX001 (ip), vehicle: saline) was 135 % of control and the T/C (dose: 0.03 mg/kg/injection, schedule: Q01DX005 (ip), vehicle: saline) was 140 % of control. The T/C (dose: 0.03 mg/kg/injection, schedule: Q03HX024 (ip), vehicle: saline) was 133 % of control, the T/C (dose: 0.03 mg/kg/injection, schedule: Q08DX002 (ip), vehicle: saline) was 140 % of control and the T/C (dose: 0.06 mg/kg/injection, schedule: Q01DX001 (ip), vehicle: saline) was 145 % of control. For the same molecule, the T/C (dose: 0.06 mg/kg/injection, schedule: Q03HX016 (ip), vehicle: saline) was 127 % of control, the T/C (dose: 0.06 mg/kg/injection, schedule: Q03HX024 (ip), vehicle: saline) was 142 % of control and the T/C (dose: 0.12 mg/kg/injection, schedule: Q03HX008 (ip), vehicle: saline) was 127 % of control. For the same molecule, the T/C (dose: 0.12 mg/kg/injection, schedule: Q03HX024 (ip), vehicle: saline) was 138 % of control, the T/C (dose: 0.12 mg/kg/injection, schedule: Q04DX003 (ip), vehicle: saline) was 140 % of control and the T/C (dose: 0.12 mg/kg/injection, schedule: Q08DX002 (ip), vehicle: saline) was 140 % of control. The T/C (dose: 1.3 micrograms/kg/injection, schedule: Q01DX009 (ip), vehicle: water) was 125 % of control, the T/C (dose: 2.5 micrograms/kg/injection, schedule: Q01DX009 (ip), vehicle: water) was 134 % of control and the T/C (dose: 3.12 micrograms/kg/injection, schedule: Q01DX009 (ip), vehicle: saline) was 136 and 140 % of control. The T/C (dose: 5.0 micrograms/kg/injection, schedule: Q01DX009 (ip), vehicle: water) was 140 % of control, the survivor count (dose: 6.25 micrograms/kg/injection, schedule: Q01DX009 (ip), vehicle: saline) was 4 of 6 and the survivor count (dose: 12.5 micrograms/kg/injection, schedule: Q01DX009 (ip), vehicle: saline) was 1 of 6. For the same molecule, the survivor count (dose: 20.0 micrograms/kg/injection, schedule: Q01DX009 (ip), vehicle: water) was 10 of 10, the survivor count (dose: 25.0 micrograms/kg/injection, schedule: Q01DX009 (ip), vehicle: saline) was 0 of 6 and 6 of 6 and the survivor count (dose: 40.0 micrograms/kg/injection, schedule: Q01DX009 (ip), vehicle: water) was 10 of 10. For the same molecule, the survivor count (dose: 50.0 micrograms/kg/injection, schedule: Q01DX009 (ip), vehicle: saline) was 0 of 6 and 3 of 6, the survivor count (dose: 80.0 micrograms/kg/injection, schedule: Q01DX009 (ip), vehicle: water) was 10 of 10 and the survivor count (dose: 100.0 micrograms/kg/injection, schedule: Q01DX009 (ip), vehicle: saline) was 0 of 6 and 3 of 6. The survivor count (dose: 160.0 micrograms/kg/injection, schedule: Q01DX009 (ip), vehicle: water) was 1 of 10.

For `CCOC(=O)/C=C(\Cl)C(=O)OCC`, the survivor count (dose: 12.5 mg/kg/injection, schedule: Q01DX009 (ip), vehicle: saline with Tween-80) was 6 of 6, the survivor count (dose: 50.0 mg/kg/injection, schedule: Q01DX009 (ip), vehicle: saline with Tween-80) was 0 of 6 and the survivor count (dose: 100.0 mg/kg/injection, schedule: Q01DX009 (ip), vehicle: saline with Tween-80) was 0 of 6. The survivor count (dose: 200.0 mg/kg/injection, schedule: Q01DX009 (ip), vehicle: saline with Tween-80) was 0 of 6.

`Cc1ccc(Nc2ccc(Cl)cc2[N+](=O)[O-])cc1` was tested, and the survivor count (dose: 120.0 mg/kg/injection, schedule: Q01DX005 (ip), vehicle: Klucel + Tween-80) was 1 of 6 and the survivor count (dose: 240.0 mg/kg/injection, schedule: Q01DX005 (ip), vehicle: Klucel + Tween-80) was 0 of 6.

In the case of `CC[N+](C)(CC)C[Si](C)(C)c1ccccc1`, the survivor count [2] is reported as 0 of 6 and the survivor count [3] is reported as 0 of 6.

For `CC(CCc1ccc2c(c1)c(=N)c1ccc(N)cc1n2O)CC(C)(C)C` (stereo unspecified), the survivor count (dose: 25.0 mg/kg/injection, schedule: Q04DX002 (ip), vehicle: distilled water + Tween-80) was 4 of 5, the survivor count (dose: 50.0 mg/kg/injection, schedule: Q04DX002 (ip), vehicle: distilled water + Tween-80) was 1 of 5 and the survivor count (dose: 100.0 mg/kg/injection, schedule: Q04DX002 (ip), vehicle: distilled water + Tween-80) was 0 of 5. For the same molecule, the survivor count (dose: 200.0 mg/kg/injection, schedule: Q04DX002 (ip), vehicle: distilled water + Tween-80) was 0 of 5 and the survivor count (dose: 400.0 mg/kg/injection, schedule: Q04DX002 (ip), vehicle: distilled water + Tween-80) was 0 of 5.

In the case of `CSC(=N)c1cccc(OCCOc2ccccc2)c1`, the survivor count (dose: 60.0 mg/kg/injection, schedule: Q01DX005 (ip), vehicle: Klucel (hydroxypropylcellulose) (HPC)) is reported as 5 of 6.

With `CC1=C(C)C(=O)C(C(C)(C)CC(=O)n2cc(F)c(=O)[nH]c2=O)=C(C)C1=O` the T/C (dose: 200.0 mg/kg/injection, schedule: Q01DX001 (ip), vehicle: saline with Tween-80) was 126 % of control and the survivor count (dose: 400.0 mg/kg/injection, schedule: Q01DX001 (ip), vehicle: saline with Tween-80) was 6 of 6.

`Cc1ccc(-n2cnc3c(N)nc(N)nc32)cc1` was tested, and the survivor count (dose: 25.0 mg/kg/injection, schedule: Q01DX005 (ip), vehicle: saline with Tween-80) was 0 of 6, the survivor count [4] was 0 of 5 and the survivor count [5] was 0 of 5. The survivor count [1] was 0 of 5.

In the case of `COc1cc2cc3c4cc(OC)c(OC)cc4cc[n+]3c(C)c2cc1OC`, the T/C (dose: 25.0 mg/kg/injection, schedule: Q04DX003 (ip), vehicle: other) is reported as 134, 135, 140 % of control, the T/C (dose: 50.0 mg/kg/injection, schedule: Q04DX003 (ip), vehicle: other) is reported as 131 % of control and the T/C (dose: 100.0 mg/kg/injection, schedule: Q04DX003 (ip), vehicle: saline sonified) is reported as 137 % of control (3×). The T/C (dose: 100.0 mg/kg/injection, schedule: Q04DX003 (ip), vehicle: saline with Tween-80) was 133 % of control [5 of 6 alive], the survivor count (dose: 200.0 mg/kg/injection, schedule: Q01DX009 (ip), vehicle: other) was 6 of 6 and the T/C (dose: 200.0 mg/kg/injection, schedule: Q04DX003 (ip), vehicle: saline sonified) was 137 % of control (3×). For the same molecule, the T/C (dose: 200.0 mg/kg/injection, schedule: Q04DX003 (ip), vehicle: saline with Tween-80) was 137 % of control, the survivor count (dose: 400.0 mg/kg/injection, schedule: Q01DX009 (ip), vehicle: other) was 3 of 6 and 5 of 6 and the T/C [6] was 141 % of control. The T/C (dose: 800.0 mg/kg/injection, schedule: Q04DX003 (ip), vehicle: saline with Tween-80) was 129 % of control.

In the case of `CN(C)CCN(Cc1ccco1)c1ccccn1`, the survivor count [4] is reported as 2 of 6 and 4 of 5, the survivor count [5] is reported as 0 of 5 and the survivor count [2] is reported as 0 of 5 and 1 of 5. The survivor count [1] was 0 of 5 and the survivor count [3] was 0 of 5 (2×).

`CCOC(=O)Sc1ncnc2nc[nH]c12` was tested, and the survivor count [6] was 5 of 6.
